The nature of this data set: Sensory test of five volunteers: comparison of taste and mucosal irritation. Conditions: 75 mg as free base; for taste and irritation in the mouth (text summary of Table 1): solid form; for Bitterness / Sour taste: solid form containing no excipient, water or solvent.

Where a name gives a salt, the structure may show the parent alone.

This note sets out measurements from US20080226579A1, “Novel Resinate Complex of S-Clopidogrel and Production Method Thereof” (Chong Kun Dang Pharmaceutical Corp., priority 2005, published 2008).

For the molecule `COC(=O)[C@H](c1ccccc1Cl)N1CCc2sccc2C1` [Clopidogrel hydrogen sulfate, reference compound], the “taste and irritation in the mouth (text summary of Table 1)” value (“taste and irritation in the mouth” below) is “bitter and obnoxious taste”; the Bitterness result was “Sustained”; the Sour taste result is given as “Very severe”.

Take “Methyl(+)-(S)-(2-chlorophenyl)(6,7-dihydro-4H-thieno[3,2-c]pyridine-5-yl)acetate-styrene sulfonate polymer complex [Example 2]”: the “taste and irritation in the mouth” value was “did not induce irritation or bitterness in the mouth but with some mild sour taste or no taste”; the Bitterness entry is listed as “No”; the Sour taste entry was “Very mild”.

Consider “Methyl(+)-(S)-(2-chlorophenyl)(6,7-dihydro-4H-thieno[3,2-c]pyridine-5-yl)acetate-styrene sulfonate polymer complex [Example 9]”, for which the “taste and irritation in the mouth” value is “did not induce irritation or bitterness in the mouth but with some mild sour taste or no taste”; the Bitterness result was “No”; the Sour taste result is “Little taste”.
